Laboratory results published in patent publication US20140038203A1, “METHODS FOR DETECTING OR PREDICTING KIDNEY DISEASE” (MUSC FOUNDATION FOR RESEARCH DEVELOPMENT, priority 2012, published 2014).

B1: Arylsulfatase A (protein, UniProt P15289 19-507, looked up)
Arylsulfatase A: RPPNIVLIFADDLGYGDLGCYGHPSSTTPNLDQLAAGGLRFTDFYVPVSLCTPSRAALLTGRLPVRMGMYPGVLVPSSRGGLPLEEVTVAEVLAARGYLTGMAGKWHLGVGPEGAFLPPHQGFHRFLGIPYSHDQGPCQNLTCFPPATPCDGGCDQGLVPIPLLANLSVEAQPPWLPGLEARYMAFAHDLMADAQRQDRPFFLYYASHHTHYPQFSGQSFAERSGRGPFGDSLMELDAAVGTLMTAIGDLGLLEETLVIFTADNGPETMRMSRGGCSGLLRCGKGTTYEGGVREPALAFWPGHIAPGVTHELASSLDLLPTLAALAGAPLPNVTLDGFDLSPLLLGTGKSPRQSLFFYPSYPDEVRGVFAVRTGKYKAHFFTQGSAHSDTTADPACHASSSLTAHEPPLLYDLSKDPGENYNLLGGVAGATPEVLQALKQLQLLKAQLDAAVTFGPSQVARGEDPALQICCHPGCTPRPACCHCPDPHA
B2: Folate receptor alpha (protein, UniProt P15328 25-234, looked up)
Folate receptor alpha: RIAWARTELLNVCMNAKHHKEKPGPEDKLHEQCRPWRKNACCSTNTSQEAHKDVSYLYRFNWNHCGEMAPACKRHFIQDTCLYECSPNLGPWIQQVDQSWRKERVLNVPLCKEDCEQWWEDCRTSYTCKSNWHKGWNWTSGFNKCAVGAACQPFHFYFPTPTVLCNEIWTHSYKVSNYSRGSGRCIQMWFDPAQGNPNEEVARFYAAAMS
B3: Syntenin-1 (protein, UniProt O00560 2-298, looked up)
Syntenin-1: SLYPSLEDLKVDKVIQAQTAFSANPANPAILSEASAPIPHDGNLYPRLYPELSQYMGLSLNEEEIRANVAVVSGAPLQGQLVARPSSINYMVAPVTGNDVGIRRAEIKQGIREVILCKDQDGKIGLRLKSIDNGIFVQLVQANSPASLVGLRFGDQVLQINGENCAGWSSDKAHKVLKQAFGEKITMTIRDRPFERTITMHKDSTGHVGFIFKNGKITSIVKDSSAARNGLLTEHNICEINGQNVIGLKDSQIADILSTSGTVVTITIMPAFIFEHIIKRMAPSIMKSLMDHTIPEV
B4: Heme-binding protein 2 (protein, UniProt Q9Y5Z4 2-205, looked up)
Heme-binding protein 2: AEPLQPDPGAAEDAAAQAVETPGWKAPEDAGPQPGSYEIRHYGPAKWVSTSVESMDWDSAIQTGFTKLNSYIQGKNEKEMKIKMTAPVTSYVEPGSGPFSESTITISLYIPSEQQFDPPRPLESDVFIEDRAEMTVFVRSFDGFSSAQKNQEQLLTLASILREDGKVFDEKVYYTAGYNSPVKLLNRNNEVWLIQKNEPTKENE
B5: Myoglobin (protein, UniProt P02144 2-154, looked up)
Myoglobin: GLSDGEWQLVLNVWGKVEADIPGHGQEVLIRLFKGHPETLEKFDKFKHLKSEDEMKASEDLKKHGATVLTALGGILKKKGHHEAEIKPLAQSHATKHKIPVKYLEFISECIIQVLQSKHPGDFGADAQGAMNKALELFRKDMASNYKELGFQG
B6: Ribosome-binding protein 1 (protein, UniProt Q9P2E9 1-1410, looked up)
Ribosome-binding protein 1: MDIYDTQTLGVVVFGGFMVVSAIGIFLVSTFSMKETSYEEALANQRKEMAKTHHQKVEKKKKEKTVEKKGKTKKKEEKPNGKIPDHDPAPNVTVLLREPVRAPAVAVAPTPVQPPIIVAPVATVPAMPQEKLASSPKDKKKKEKKVAKVEPAVSSVVNSIQVLTSKAAILETAPKEVPMVVVPPVGAKGNTPATGTTQGKKAEGTQNQSKKAEGAPNQGRKAEGTPNQGKKTEGTPNQGKKAEGTPNQGKKAEGTPNQGKKAEGAQNQGKKVDTTPNQGKKVEGAPTQGRKAEGAQNQAKKVEGAQNQGKKAEGAQNQGKKGEGAQNQGKKAEGAQNQGKKAEGAQNQGKKAEGAQNQGKKAEGAQNQGKKAEGAQNQGKKAEGAQNQGKKVEGAQNQGKKAEGAQNQGKKAEGAQNQGKKAEGAQNQGKKAEGAQNQGKKAEGAQNQGKKAEGAQNQGKKAEGAQNQGKKVEGAQNQGKKAEGAQNQGKKAEGAQNQGKKAEGAQNQGQKGEGAQNQGKKTEGAQGKKAERSPNQGKKGEGAPIQGKKADSVANQGTKVEGITNQGKKAEGSPSEGKKAEGSPNQGKKADAAANQGKKTESASVQGRNTDVAQSPEAPKQEAPAKKKSGSKKKGEPGPPDADGPLYLPYKTLVSTVGSMVFNEGEAQRLIEILSEKAGIIQDTWHKATQKGDPVAILKRQLEEKEKLLATEQEDAAVAKSKLRELNKEMAAEKAKAAAGEAKVKKQLVAREQEITAVQARMQASYREHVKEVQQLQGKIRTLQEQLENGPNTQLARLQQENSILRDALNQATSQVESKQNAELAKLRQELSKVSKELVEKSEAVRQDEQQRKALEAKAAAFEKQVLQLQASHRESEEALQKRLDEVSRELCHTQSSHASLRADAEKAQEQQQQMAELHSKLQSSEAEVRSKCEELSGLHGQLQEARAENSQLTERIRSIEALLEAGQARDAQDVQASQAEADQQQTRLKELESQVSGLEKEAIELREAVEQQKVKNNDLREKNWKAMEALATAEQACKEKLLSLTQAKEESEKQLCLIEAQTMEALLALLPELSVLAQQNYTEWLQDLKEKGPTLLKHPPAPAEPSSDLASKLREAEETQSTLQAECDQYRSILAETEGMLRDLQKSVEEEEQVWRAKVGAAEEELQKSRVTVKHLEEIVEKLKGELESSDQVREHTSHLEAELEKHMAAASAECQNYAKEVAGLRQLLLESQSQLDAAKSEAQKQSDELALVRQQLSEMKSHVEDGDIAGAPASSPEAPPAEQDPVQLKTQLEWTEAILEDEQTQRQKLTAEFEEAQTSACRLQEELEKLRTAGPLESSETEEASQLKERLEKEKKLTSDLGRAATRLQELLKTTQEQLAREKDTVKKLQEQLEKAEDGSSSKEGTSV
B7: Ig lambda chain V-III region SH (protein, UniProt P01714 21-112, looked up)
Immunoglobulin lambda …: SELTQDPAVSVALGQTVRITCQGDSLRSYYASWYQQKPGQAPVLVIYGKNNRPSGIPDRFSGSSSGNTASLTITGAQAEDEADYYCNSRDSS
B8: Ig mu chain C region (protein, UniProt P01871 1-474, looked up)
Immunoglobulin heavy constant …: GSASAPTLFPLVSCENSPSDTSSVAVGCLAQDFLPDSITFSWKYKNNSDISSTRGFPSVLRGGKYAATSQVLLPSKDVMQGTDEHVVCKVQHPNGNKEKNVPLPVIAELPPKVSVFVPPRDGFFGNPRKSKLICQATGFSPRQIQVSWLREGKQVGSGVTTDQVQAEAKESGPTTYKVTSTLTIKESDWLGQSMFTCRVDHRGLTFQQNASSMCVPDQDTAIRVFAIPPSFASIFLTKSTKLTCLVTDLTTYDSVTISWTRQNGEAVKTHTNISESHPNATFSAVGEASICEDDWNSGERFTCTVTHTDLPSPLKQTISRPKGVALHRPDVYLLPPAREQLNLRESATITCLVTGFSPADVFVQWMQRGQPLSPEKYVTSAPMPEPQAPGRYFAHSILTVSEEEWNTGETYTCVVAHEALPNRVTERTVDKSTEGEVSADEEGFENLWATASTFIVLFLLSLFYSTTVTLFKVK
B9: Ceruloplasmin (protein, UniProt P00450 20-1065, looked up)
Ceruloplasmin: KEKHYYIGIIETTWDYASDHGEKKLISVDTEHSNIYLQNGPDRIGRLYKKALYLQYTDETFRTTIEKPVWLGFLGPIIKAETGDKVYVHLKNLASRPYTFHSHGITYYKEHEGAIYPDNTTDFQRADDKVYPGEQYTYMLLATEEQSPGEGDGNCVTRIYHSHIDAPKDIASGLIGPLIICKKDSLDKEKEKHIDREFVVMFSVVDENFSWYLEDNIKTYCSEPEKVDKDNEDFQESNRMYSVNGYTFGSLPGLSMCAEDRVKWYLFGMGNEVDVHAAFFHGQALTNKNYRIDTINLFPATLFDAYMVAQNPGEWMLSCQNLNHLKAGLQAFFQVQECNKSSSKDNIRGKHVRHYYIAAEEIIWNYAPSGIDIFTKENLTAPGSDSAVFFEQGTTRIGGSYKKLVYREYTDASFTNRKERGPEEEHLGILGPVIWAEVGDTIRVTFHNKGAYPLSIEPIGVRFNKNNEGTYYSPNYNPQSRSVPPSASHVAPTETFTYEWTVPKEVGPTNADPVCLAKMYYSAVEPTKDIFTGLIGPMKICKKGSLHANGRQKDVDKEFYLFPTVFDENESLLLEDNIRMFTTAPDQVDKEDEDFQESNKMHSMNGFMYGNQPGLTMCKGDSVVWYLFSAGNEADVHGIYFSGNTYLWRGERRDTANLFPQTSLTLHMWPDTEGTFNVECLTTDHYTGGMKQKYTVNQCRRQSEDSTFYLGERTYYIAAVEVEWDYSPQREWEKELHHLQEQNVSNAFLDKGEFYIGSKYKKVVYRQYTDSTFRVPVERKAEEEHLGILGPQLHADVGDKVKIIFKNMATRPYSIHAHGVQTESSTVTPTLPGETLTYVWKIPERSGAGTEDSACIPWAYYSTVDQVKDLYSGLIGPLIVCRRPYLKVFNPRRKLEFALLFLVFDENESWYLDDNIKTYSDHPEKVNKDDEEFIESNKMHAINGRMFGNLQGLTMHVGDEVNWYLMGMGNEIDLHTVHFHGHSFQYKHRGVYSSDVFDIFPGTYQTLEMFPRTPGIWLLHCHVTDHIHAGMETTYTVLQNEDTKSG
B10: Beta-2-glycoprotein 1 (protein, UniProt P02749 20-345, looked up)
Beta-2-glycoprotein 1: GRTCPKPDDLPFSTVVPLKTFYEPGEEITYSCKPGYVSRGGMRKFICPLTGLWPINTLKCTPRVCPFAGILENGAVRYTTFEYPNTISFSCNTGFYLNGADSAKCTEEGKWSPELPVCAPIICPPPSIPTFATLRVYKPSAGNNSLYRDTAVFECLPQHAMFGNDTITCTTHGNWTKLPECREVKCPFPSRPDNGFVNYPAKPTLYYKDKATFGCHDGYSLDGPEEIECTKLGNWSAMPSCKASCKVPVKKATVVYQGERVKIQEKFKNGMLHGDKVSFFCKNKEKKCSYTEDAQCIDGTIEVPKCFKEHSSLAFWKTDASDVKPC
B11: Ganglioside GM2 activator (protein, UniProt P17900 32-193, looked up)
Ganglioside GM2 activator: SSFSWDNCDEGKDPAVIRSLTLEPDPIIVPGNVTLSVMGSTSVPLSSPLKVDLVLEKEVAGLWIKIPCTDYIGSCTFEHFCDVLDMLIPTGEPCPEPLRTYGLPCHCPFKEGTYSLPKSEFVVPDLELPSWLTTGNYRIESVLSSSGKRLGCIKIAASLKGI
B12: Alpha-2-HS-glycoprotein (protein, UniProt P02765 19-300; P02765 341-367, looked up)
Alpha-2-HS-glycoprotein chain … 1: APHGPGLIYRQPNCDDPETEEAALVAIDYINQNLPWGYKHTLNQIDEVKVWPQQPSGELFEIEIDTLETTCHVLDPTPVARCSVRQLKEHAVEGDCDFQLLKLDGKFSVVYAKCDSSPDSAEDVRKVCQDCPLLAPLNDTRVVHAAKAALAAFNAQNNGSNFQLEEISRAQLVPLPPSTYVEFTVSGTDCVAKEATEAAKCNLLAEKQYGFCKATLSEKLGGAEVAVTCMVFQTQPVSSQPQPEGANEAVPTPVVDPDAPPSPPLGAPGLPPAGSPPDSHVL
Alpha-2-HS-glycoprotein chain … 2: TVVQPSVGAAAGPVVPPCPGRIRHFKV

Assay: RRT study: LC-MS/MS urinary proteomics, AKI after cardiac surgery, RRT vs No RRT
Parameters: species or system human
Conditions: direction of differential abundance, patients who did vs did not require RRT/dialysis

Molecule | Up or Down
B1 | Down
B2 | Down
B3 | Down

Same assay, conditions: direction of urinary abundance, patients who did vs did not require RRT/dialysis

Molecule | Up or Down
B4 | Up
B5 | Up
B6 | Up
B7 | Up
B8 | Up
B9 | Up
B10 | Up
B11 | Up
B12 | Up

Same assay, conditions: patients who did vs did not require RRT/dialysis

Molecule | Mean Fold Change
B1 | 1.44
B2 | 2.118
B3 | 1.059

Same assay, conditions: patients who did vs did not require RRT/dialysis; read with the Up or Down column

Molecule | Mean Fold Change
B5 | 114.3198
B6 | 37.19
B7 | 25.04
B8 | 2.516
B9 | 15.25
B10 | 2.05
B11 | 2.512
B12 | 1.891
